The list shows only some results of the screen, not a fair sample: it is rich in T/C values a quarter to a half above the control, in often repeated tests (any T/C) and in doses without a T/C. Further doses and runs are listed elsewhere. T/C gives the treated animals as a percentage of the vehicle group. Some entries give survivors of the animals treated and no T/C: the source holds a T/C of zero for them, seemingly a mark for toxic or unscored doses. Some survivor counts are full or nearly so, which does not show that the dose was tolerated: survival well below the control is almost never listed, so the zero probably covers shortened survival too. Survivors were counted at the toxicity check, usually on the fifth day, unless a day is given; later deaths do not show. Schedule codes are those of the source, taken here to give the interval after Q, in days (D) or hours (H), and the number of doses after X. Some entries hold several experiments; their values stand side by side, smallest first. Where survival is the endpoint, the PubChem record calls one and a half times the control and up active, and a quarter to a half above the control has no call in these data; cut-offs in other NCI protocols can differ. Some T/C values carry the count of animals alive at the toxicity check (mostly the fifth day); without a count, all were alive then.
Test system: L1210 leukemia ip in BDF1 mice, survival T/C
Test: NCI In Vivo Anticancer Drug Screen. Data for tumor model L1210 Leukemia (intraperitoneal) in B6D2F1 (BDF1) mice
Conditions: higher T/C = longer survival
[1] = T/C endpoint: mean survival time, dose: 400.0 mg/kg/injection, schedule: Q01DX001 (ip), vehicle: saline
[2] = T/C endpoint: mean survival time, dose: 400.0 mg/kg/injection, schedule: Q01DX009 (ip), vehicle: Klucel (hydroxypropylcellulose) (HPC)
[3] = T/C endpoint: mean survival time, dose: 200.0 mg/kg/injection, schedule: Q01DX009 (ip), vehicle: saline with Tween-80
[4] = T/C endpoint: mean survival time, dose: 200.0 mg/kg/injection, schedule: Q04DX003 (ip), vehicle: saline
[5] = T/C endpoint: mean survival time, dose: 100.0 mg/kg/injection, schedule: Q01DX009 (ip), vehicle: saline with Tween-80
[6] = T/C endpoint: mean survival time, dose: 200.0 mg/kg/injection, schedule: Q01DX001 (ip), vehicle: saline
[7] = T/C endpoint: mean survival time, dose: 100.0 mg/kg/injection, schedule: Q01DX001 (ip), vehicle: saline
[8] = T/C endpoint: mean survival time, dose: 100.0 mg/kg/injection, schedule: Q04DX002 (ip), vehicle: saline
[9] = T/C endpoint: mean survival time, dose: 200.0 mg/kg/injection, schedule: Q04DX002 (ip), vehicle: saline
[10] = T/C endpoint: mean survival time, dose: 400.0 mg/kg/injection, schedule: Q04DX002 (ip), vehicle: saline

## O=C1CC(=O)N(Cc2ccccc2)C(=O)N1
T/C endpoint: mean survival time, dose: 400.0 mg/kg/injection, schedule: Q01DX001 (ip), vehicle: carboxymethylcellulose (CMC)
  survivor count: 4 of 4

## CC12CCCC(C(C#N)C(N)=O)(C1)NC(=O)C2C#N (centres undefined)
[1]
  survivor count: 1 of 4

## O=S(=O)(O)c1cccc2nsnc12
[2]
  survivor count: 0 of 6

## COC1C=COC2(C)Oc3c(C)c(O)c4c(c3C2=O)/C(=N/C2CCC(O)OC2C)C=C(NC(=O)/C(C)=C\C(=O)C2CC2C(O)C(C)C(O)C(C)C(OC(C)=O)C1C)C4=O (centres undefined)
T/C endpoint: mean survival time, dose: 200.0 mg/kg/injection, schedule: Q04DX002 (ip), vehicle: saline with Tween-80
  survivor count: 3 of 3
T/C endpoint: mean survival time, dose: 400.0 mg/kg/injection, schedule: Q04DX002 (ip), vehicle: saline with Tween-80
  survivor count: 0 of 3

## N#CC(C#N)=Cc1ccc2c(c1)CCC2
T/C endpoint: mean survival time, dose: 150.0 mg/kg/injection, schedule: Q01DX001 (ip), vehicle: other
  survivor count: 0 of 6
T/C endpoint: mean survival time, dose: 300.0 mg/kg/injection, schedule: Q01DX001 (ip), vehicle: other
  survivor count: 0 of 6

## O=C1C=C2CCCCC2C1 (centres undefined)
[3]
  survivor count: 1 of 3

## CCOC(C)(NCc1ccccc1)OCC
T/C endpoint: mean survival time, dose: 100.0 mg/kg/injection, schedule: Q04DX002 (ip), vehicle: Klucel (hydroxypropylcellulose) (HPC)
  survivor count: 0 of 3

## CCCCCCCCCCCC(=O)Nc1cc(C(C)C)ccc1C
[4]
  survivor count: 6 of 6
T/C endpoint: mean survival time, dose: 400.0 mg/kg/injection, schedule: Q04DX003 (ip), vehicle: saline
  survivor count: 3 of 6

## O=C(CI)Nc1cccc(NC(=O)C(=O)O)c1
T/C endpoint: mean survival time, dose: 80.0 mg/kg/injection, schedule: Q04DX003 (ip), vehicle: Klucel (hydroxypropylcellulose) (HPC)
  survivor count: 0 of 6
T/C endpoint: mean survival time, dose: 100.0 mg/kg/injection, schedule: Q04DX003 (ip), vehicle: Klucel (hydroxypropylcellulose) (HPC)
  survivor count: 0 of 6
T/C endpoint: mean survival time, dose: 200.0 mg/kg/injection, schedule: Q04DX003 (ip), vehicle: Klucel (hydroxypropylcellulose) (HPC)
  survivor count: 0 of 6
T/C endpoint: mean survival time, dose: 400.0 mg/kg/injection, schedule: Q04DX003 (ip), vehicle: Klucel (hydroxypropylcellulose) (HPC)
  survivor count: 0 of 6

## Cc1ccc([P+](Cc2ccccc2)(c2ccccc2)c2ccc(C)cc2)cc1
T/C endpoint: mean survival time, dose: 30.0 mg/kg/injection, schedule: Q01DX001 (ip), vehicle: saline
  survivor count: 2 of 6
T/C endpoint: mean survival time, dose: 60.0 mg/kg/injection, schedule: Q01DX001 (ip), vehicle: saline
  survivor count: 0 of 6
T/C endpoint: mean survival time, dose: 75.0 mg/kg/injection, schedule: Q01DX001 (ip), vehicle: saline
  survivor count: 0 of 6
T/C endpoint: mean survival time, dose: 150.0 mg/kg/injection, schedule: Q01DX001 (ip), vehicle: saline
  survivor count: 0 of 6
T/C endpoint: mean survival time, dose: 300.0 mg/kg/injection, schedule: Q01DX001 (ip), vehicle: saline
  survivor count: 0 of 6

## COc1cccc(/C=N/NC(=O)C[n+]2ccccc2)c1OC
[5]
  survivor count: 3 of 6
T/C endpoint: mean survival time, dose: 200.0 mg/kg/injection, schedule: Q04DX003 (ip), vehicle: saline with Tween-80
  survivor count: 0 of 6
T/C endpoint: mean survival time, dose: 400.0 mg/kg/injection, schedule: Q04DX003 (ip), vehicle: saline with Tween-80
  survivor count: 0 of 6

## Cc1ccc(N2CCNCC2)cc1Cl
T/C endpoint: mean survival time, dose: 100.0 mg/kg/injection, schedule: Q04DX003 (ip), vehicle: saline
  survivor count: 6 of 6
[4]
  survivor count: 1 of 6

## NC(=S)NN=C1CCN(Cc2ccccc2)CC1
[6]
  survivor count: 0 of 4
[1]
  survivor count: 0 of 4

## C[n+]1c(/C=C/c2ccc3cccc(O)c3n2)ccc2cccc(O)c21
T/C endpoint: mean survival time, dose: 50.0 mg/kg/injection, schedule: Q01DX009 (ip), vehicle: saline with Tween-80
  survivor count: 2 of 6
T/C endpoint: mean survival time, dose: 75.0 mg/kg/injection, schedule: Q04DX003 (ip), vehicle: saline with Tween-80
  survivor count: 5 of 6
T/C endpoint: mean survival time, dose: 115.0 mg/kg/injection, schedule: Q04DX003 (ip), vehicle: saline with Tween-80
  survivor count: 3 of 6
T/C endpoint: mean survival time, dose: 170.0 mg/kg/injection, schedule: Q04DX003 (ip), vehicle: saline with Tween-80
  survivor count: 5 of 6

## CN=C(Nc1ccc(Cl)c(Cl)c1)C(C)C
T/C endpoint: mean survival time, dose: 100.0 mg/kg/injection, schedule: Q04DX002 (ip), vehicle: DMSO
  survivor count: 2 of 3 and 3 of 3
T/C endpoint: mean survival time, dose: 200.0 mg/kg/injection, schedule: Q04DX002 (ip), vehicle: DMSO
  survivor count: 3 of 3
T/C endpoint: mean survival time, dose: 400.0 mg/kg/injection, schedule: Q04DX002 (ip), vehicle: DMSO
  survivor count: 3 of 3

## CC(=O)CC(=O)Nc1cccc([N+](=O)[O-])c1
T/C endpoint: mean survival time, dose: 200.0 mg/kg/injection, schedule: Q01DX009 (ip), vehicle: Klucel (hydroxypropylcellulose) (HPC)
  survivor count: 5 of 6
[2]
  survivor count: 3 of 6

## Cc1ccc2c(c1)N(CCCN1CC[N+](C)(C)CC1)c1ccccc1S2
[7]
  survivor count: 0 of 4
[6]
  survivor count: 0 of 4
[1]
  survivor count: 0 of 4

## O=S(=O)(C(Br)CBr)C(Br)CBr (centres undefined)
[5]
  survivor count: 3 of 6

## COc1ccc2c(c1)Cc1cc(NC(=O)N(CCCl)N=O)ccc1-2
T/C endpoint: mean survival time, dose: 5.0 mg/kg/injection, schedule: Q01DX009 (ip), vehicle: saline
  T/C: 132 % of control
T/C endpoint: mean survival time, dose: 15.0 mg/kg/injection, schedule: Q01DX001 (ip), vehicle: carboxymethylcellulose (CMC)
  T/C: 138 % of control
T/C endpoint: mean survival time, dose: 30.0 mg/kg/injection, schedule: Q01DX001 (ip), vehicle: carboxymethylcellulose (CMC)
  T/C: 144 % of control
T/C endpoint: mean survival time, dose: 60.0 mg/kg/injection, schedule: Q01DX001 (ip), vehicle: carboxymethylcellulose (CMC)
  T/C: 130 % of control
T/C endpoint: mean survival time, dose: 75.0 mg/kg/injection, schedule: Q01DX009 (ip), vehicle: carboxymethylcellulose (CMC)
  T/C: 145 % of control
T/C endpoint: mean survival time, dose: 90.0 mg/kg/injection, schedule: Q01DX001 (ip), vehicle: other
  T/C: 128 % of control
T/C endpoint: mean survival time, dose: 118.0 mg/kg/injection, schedule: Q01DX009 (ip), vehicle: carboxymethylcellulose (CMC)
  T/C: 125 % of control [5 of 6 alive]
T/C endpoint: mean survival time, dose: 120.0 mg/kg/injection, schedule: Q01DX001 (ip), vehicle: carboxymethylcellulose (CMC)
  T/C: 141 % of control
T/C endpoint: mean survival time, dose: 122.0 mg/kg/injection, schedule: Q01DX009 (ip), vehicle: other
  survivor count: 2 of 6
T/C endpoint: mean survival time, dose: 177.0 mg/kg/injection, schedule: Q01DX001 (ip), vehicle: other
  T/C: 127 % of control
T/C endpoint: mean survival time, dose: 177.0 mg/kg/injection, schedule: Q01DX009 (ip), vehicle: other
  survivor count: 1 of 6
T/C endpoint: mean survival time, dose: 266.0 mg/kg/injection, schedule: Q01DX009 (ip), vehicle: other
  survivor count: 0 of 6
T/C endpoint: mean survival time, dose: 400.0 mg/kg/injection, schedule: Q01DX001 (ip), vehicle: other
  survivor count: 0 of 6
T/C endpoint: mean survival time, dose: 600.0 mg/kg/injection, schedule: Q01DX001 (ip), vehicle: other
  survivor count: 0 of 6

## CC[N+](CC)(CC)c1ccccc1
[8]
  survivor count: 0 of 3
[9]
  survivor count: 0 of 3
[10]
  survivor count: 0 of 3

## Clc1ccc(C#CP(C#Cc2ccc(Cl)cc2)C#Cc2ccc(Cl)cc2)cc1
[3]
  survivor count: 3 of 3

## Cc1ccc(NC(=O)N(O)C2CCCCC2C#N)cc1 (centres undefined)
[7]
  survivor count: 4 of 4

## O=C1CCCN(C2CCCCC2)CCC1O (centres undefined)
T/C endpoint: mean survival time, dose: 400.0 mg/kg/injection, schedule: Q04DX003 (ip), vehicle: acetone
  survivor count: 0 of 6

## NC(=O)N/N=C\C=N/NC(N)=O
T/C endpoint: mean survival time, dose: 400.0 mg/kg/injection, schedule: Q01DX001 (ip), vehicle: Klucel (hydroxypropylcellulose) (HPC)
  survivor count: 3 of 3

## O=C(ON=C(c1ccc(Cl)cc1)c1ccc(Cl)cc1)c1ccc(Cl)cc1
T/C endpoint: median survival time, dose: 108.0 mg/kg/injection, schedule: Q01DX009 (ip), vehicle: Klucel (hydroxypropylcellulose) (HPC), evaluated on day 5
  T/C: 138 % of control
T/C endpoint: median survival time, dose: 108.0 mg/kg/injection, schedule: Q01DX009 (ip), vehicle: Klucel (hydroxypropylcellulose) (HPC), evaluated on day 19
  T/C: 138 % of control
T/C endpoint: median survival time, dose: 180.0 mg/kg/injection, schedule: Q01DX009 (ip), vehicle: Klucel (hydroxypropylcellulose) (HPC), evaluated on day 5
  T/C: 127 % of control
T/C endpoint: median survival time, dose: 180.0 mg/kg/injection, schedule: Q01DX009 (ip), vehicle: Klucel (hydroxypropylcellulose) (HPC), evaluated on day 19
  T/C: 127 % of control [7 of 8 alive]
T/C endpoint: median survival time, dose: 833.0 mg/kg/injection, schedule: Q01DX009 (ip), vehicle: Klucel (hydroxypropylcellulose) (HPC)
  survivor count: 5 of 8

## Cn1c2ccccc2[n+]2c(N)scc12
[8]
  survivor count: 2 of 3
[9]
  survivor count: 0 of 3 and 2 of 3
[10]
  survivor count: 0 of 3

From PubChem BioAssay AID248 (DTP/NCI, 2004)
